Measured values from US11147819B2, “EZH2 inhibitors for treating cancer” (Epizyme, Inc., priority 2016, dated 2021).
At least one compound was matched to its structure with a doubt left.

Tests used:
Assay type in all cases: cell-based
TMD8 [1] = experiment: Combination study with tazemetostat (synergy by IC50 shifts or Calcusyn); conditions: TMD8 (ABC)
Protocol: (§1) Synergy was assessed by IC50 shifts or Calcusyn. [table]

KARPAS-422 = experiment: as above; conditions: KARPAS-422 (EZH2 mutant)
Protocol: as §1

SU-DHL5 = experiment: as above; conditions: SU-DHL-5 (EZH2 wt)
Protocol: as §1

GCB cell lines = experiment: Apoptosis, single agents or combination, 7 days (FIG. 6A)
TMD8 [2] = experiment: as above; conditions: ABC cell line TMD8

SMILES: C=CC(=O)N1CCC[C@@H](n2nc(-c3ccc(Oc4ccccc4)cc3)c3c(N)ncnc32)C1 [Ibrutinib]
- Combination effect with TAZ (FIG. 5) (TMD8 [1]): Synergy
- Combination effect with TAZ (FIG. 5) (KARPAS-422): Synergy
- Combination effect with TAZ (FIG. 5) (SU-DHL5): Synergy
- apoptosis, combination with TAZ compared to the single agents (GCB cell lines): significant increase of apoptosis
- apoptosis, combination with TAZ compared to the single agents (TMD8 [2]): not seen
